These are yes or no findings as the source states them, for the method shown. Binding seen in cells or lysates may run through a third protein. Some entries that bind do so weakly or less than the wild type. Blank lines part the entries; values can stand above or below the substance they belong to.
Experiments:
GST-Smad2 fusion protein = GST-Smad2 fusion protein (UniProt Q15796); test: pull-down; GST-Smad2 (or GST) from BL21 enriched on GST beads, incubated with lysate of HEK293T transfected with Flag-TH, 3 h, 4 °C; Western blot; only the target purified
HA-Smad2 = HA-Smad2 (UniProt Q15796); test: co-IP; Flag-TH and HA-Smad2 plasmids co-transfected into HEK293T; lysed after 48 h in IP lysis buffer (50 mM Tris-HCl pH 7.4, 150 mM NaCl, 5 mM EDTA, 1% NP-40); Flag-beads or HA-beads, 4 °C, 3 h; Western blot
[1] = molecular target: endogenous Smad2 (human (endogenous in Huh7)) (UniProt Q15796); test: co-IP; Huh7 cells with exogenously expressed Flag-TH, endogenous Smad2; cells treated with TGFβ1
[2] = molecular target: endogenous Smad2 (human (endogenous in Huh7)) (UniProt Q15796); test: co-IP; endogenous proteins in Huh7 lysate; 2 μg anti-TH or anti-Smad2 antibody, 4 °C, 8 h; Protein A/G beads 2 h; Western blot

Sequences of proteins named here, by UniProt entry; tags and fusion partners are left off.
UniProt Q15796: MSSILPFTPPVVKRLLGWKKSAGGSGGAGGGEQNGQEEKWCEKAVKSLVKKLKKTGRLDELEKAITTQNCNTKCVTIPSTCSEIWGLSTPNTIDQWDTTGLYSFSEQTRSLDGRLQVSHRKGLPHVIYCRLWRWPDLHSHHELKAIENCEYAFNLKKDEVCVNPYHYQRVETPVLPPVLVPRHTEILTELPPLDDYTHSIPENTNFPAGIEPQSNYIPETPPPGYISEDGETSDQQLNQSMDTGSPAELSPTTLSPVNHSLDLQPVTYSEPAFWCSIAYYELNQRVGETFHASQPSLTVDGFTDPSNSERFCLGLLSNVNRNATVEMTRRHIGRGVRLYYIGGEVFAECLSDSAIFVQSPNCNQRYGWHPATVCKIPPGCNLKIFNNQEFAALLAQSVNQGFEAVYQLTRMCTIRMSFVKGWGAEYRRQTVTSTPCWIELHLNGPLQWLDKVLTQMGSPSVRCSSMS
UniProt P07101: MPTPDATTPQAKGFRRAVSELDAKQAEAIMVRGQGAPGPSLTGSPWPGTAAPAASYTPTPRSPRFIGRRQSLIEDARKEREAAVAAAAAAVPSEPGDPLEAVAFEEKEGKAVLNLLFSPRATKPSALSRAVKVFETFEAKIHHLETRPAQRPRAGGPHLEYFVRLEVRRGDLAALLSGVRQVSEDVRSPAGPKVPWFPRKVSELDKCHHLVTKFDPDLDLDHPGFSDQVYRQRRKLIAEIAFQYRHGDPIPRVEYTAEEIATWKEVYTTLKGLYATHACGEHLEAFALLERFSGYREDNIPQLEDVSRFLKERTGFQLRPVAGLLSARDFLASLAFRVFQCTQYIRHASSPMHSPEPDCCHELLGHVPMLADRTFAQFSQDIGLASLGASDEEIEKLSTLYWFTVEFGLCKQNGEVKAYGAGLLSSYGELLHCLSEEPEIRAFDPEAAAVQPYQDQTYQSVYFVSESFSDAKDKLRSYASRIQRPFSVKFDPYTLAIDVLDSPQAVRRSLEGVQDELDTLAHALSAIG

binding (GST-Smad2 fusion protein): binds
binding (HA-Smad2): binds
Substance: Flag-TH (tyrosine hydroxylase) (from UniProt P07101 1-528) (enzyme)

binding [1]: binds
Substance: Flag-TH overexpressed in Huh7 cells (from UniProt P07101 1-528) (enzyme)

binding [2]: binds
Substance: endogenous TH (tyrosine hydroxylase) (from UniProt P07101 1-528) (enzyme)

Reference: PMC11015545
